Experimental data reported in patent US11298343B2, “Method for treating thalassemia” (ST. JUDE CHILDREN'S RESEARCH HOSPITAL, priority 2017, dated 2022).
Read-outs that look alike come from different tables or passages of the source. For at least one compound, name, drawing or mass did not settle the structure.

Legend:
[1] = Spleen weight of rapamycin-treated mice; type: in vivo; conditions: Hbb^Th3/+ mice, P<0.01
[2] = system: autophagosomal membrane-bound LC3-II; assay: Western blot of LC3-II in reticulocytes of treated mice; type: in vivo; conditions: Hbb^Th3/+ mice treated with rapamycin
[3] = system: β-thalassemic and control mice; assay: Pathology grading of erythropoiesis (bone marrow, spleen, liver) in rapamycin-treated mice; type: in vivo; conditions: Rapamycin-treated Hbb^Th3/+ mice
Experimental: Bright-field images of hematoxylin and eosin-stained tissues were acquired with a Nikon Eclipse Ni microscope. Morphologic phenotyping of all cohorts was carried out in a blinded manner by a board-certified veterinary pathologist. A semi-quantitative grading method was used to highlight visual differences in the erythropoiesis in each cohort. The bone marrow, spleen, and liver were first analyzed separately using the following grading scale: grade 0: within normal limits; grade 1: minimal; grade 2: mild; grade 3: moderate; grade 4: marked; grade 5: severe. A total grade for erythropoiesis (final grade) was calculated based on the sum of the grades for each of the three tissues. […] No mouse received a grade consistent with a severe increase in erythropoiesis.
(§1) Tissue samples were submitted for pathology analysis.

[4] = system: fetal hemoglobin; assay: Fetal hemoglobin level in cultures of erythroblasts derived from human CD34+ cells; type: cell-based; conditions: present studies
[5] = system: fetal hemoglobin; conditions: previous studies (Fibach 2006; Pecoraro 2015); cited from earlier work
[6] = system: insoluble α-globin; assay: Detection of insoluble α-globin precipitates (TAU gel) in erythroid cells of treated mice; type: in vivo; conditions: FIG. 2
Experimental: Briefly, 20 μL of washed RBCs (normalized based on the hematocrit percentage) were lysed and centrifuged at 16,000×g at 4° C. for 30 minutes. The pellets were washed extensively in ice-cold 0.05×PBS. Membrane lipids were extracted with 56 mM sodium borate, pH 8.0, containing 0.1% TWEEN-20, at 4° C. Precipitated globins were dissolved in 8M urea, 10% acetic acid, 10% β-mercaptoethanol, and 0.04% pyronin, fractionated by TRITON-acetic acid-urea (TAU) gel electrophoresis, and stained with COOMASSIE brilliant blue. Soluble hemoglobin fractions were analyzed and quantified as loading controls by using AlphaView SA 3.4.0 (ProteinSimple).
as §1
Insoluble α-globin in reticulocytes from rapamycin-treated Hbb^Th3/+ mice was decreased by approximately 50% (FIG. 2).

With `CO[C@H]1C[C@@H]2CC[C@@H](C)[C@@](O)(O2)C(=O)C(=O)N2CCCC[C@H]2C(=O)O[C@H]([C@H](C)C[C@@H]2CC[C@@H](O)[C@H](OC)C2)CC(=O)[C@H](C)/C=C(\C)[C@@H](O)[C@@H](OC)C(=O)[C@H](C)C[C@H](C)/C=C/C=C/C=C/1C` [rapamycin] the spleen weight [1] was “reduction in spleen weight”, the “levels of autophagosomal membrane-bound LC3-II in reticulocytes” value [2] was “decreased” and the “bone marrow erythroid hyperplasia and extramedullary erythropoiesis in the spleen and liver” value [3] was “reduced levels”. For the same compound, the “elevation of fetal hemoglobin level” value [4] was “not observed”, the “elevation of fetal hemoglobin level” value [5] was “could elevate fetal hemoglobin level” and the “insoluble α-globin chains compared to vehicle controls” value ([6]; Hbb^Th3/+ mice, P<0.01) was “decrease”. The “effect on the accumulation of insoluble α-globin” value ([6]; Hbb^Th3/+Ulk1^−/− mice) was “no modification observed”.
